Measured values published in PubChem BioAssay AID504847 (National Center for Advancing Translational Sciences (NCATS), 2011).
The whole screen tested about 400,000 compounds, of which about 3,700 (0.93%) were called active. Inconclusive results, whose numbers are uncertain, are shown with a selection of clear calls. Calls come from the whole dose curve; as a rule, active = well fitted inhibition curve with a large enough effect; inconclusive = small, poorly fitted or top-dose-only effect, or another doubt; inactive = no such curve, though single readings can be large or run the other way. Potencies of inconclusive entries are doubtful fits and often do not repeat.

By UniProt entry, the sequences of proteins in these tests, tags left out. Where a name states a change or a piece, a line headed by the entry shows the natural chain unless it says otherwise.
UniProt P11473: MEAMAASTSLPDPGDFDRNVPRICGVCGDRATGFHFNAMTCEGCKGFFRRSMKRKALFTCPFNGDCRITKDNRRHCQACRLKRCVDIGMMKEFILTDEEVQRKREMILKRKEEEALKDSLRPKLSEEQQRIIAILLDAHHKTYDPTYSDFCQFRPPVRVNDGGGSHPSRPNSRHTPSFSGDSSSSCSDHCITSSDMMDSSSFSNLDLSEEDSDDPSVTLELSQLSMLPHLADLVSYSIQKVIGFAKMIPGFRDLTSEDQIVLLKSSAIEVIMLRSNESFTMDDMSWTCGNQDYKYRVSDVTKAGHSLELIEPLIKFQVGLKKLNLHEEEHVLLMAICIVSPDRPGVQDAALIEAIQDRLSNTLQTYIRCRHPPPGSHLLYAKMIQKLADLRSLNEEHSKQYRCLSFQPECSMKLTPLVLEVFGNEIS

Each compound was assayed against Vitamin D3 receptor (Homo sapiens) (UniProt P11473) (assay: Inhibitors of the vitamin D receptor (VDR): qHTS). Settings: VDR-SRC2-3 peptide fluorescence polarization, 2 h; max response, negative = inhibition: active compounds read low.
Summary of the method: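 Fluorescence polarization assay measuring small-molecule disruption of VDR binding to the coregulator peptide SRC2-3. Compounds were pin-transferred (23 nl) into the reagent mix and incubated 2 h at room temperature before reading.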
% is set by controls: 0 for no effect and ±100 for the full control effect; potency is the fitted concentration of half-maximal effect.

Potency, inconclusive:
CN(C)c1ccc(NC(=S)NCC2CCCO2)cc1 (stereo not given) 79.4 µM [inhibitor, partial curve, poor fit], COc1ccc(-c2nc(-c3ccccc3)c(NCc3ccccc3)o2)cc1 44.7 µM [inhibitor, partial curve], CC(C)=NN/C(N)=N/C(=S)Nc1ccc(C)cc1 89.1 µM [inhibitor, single point], CCOC(=O)c1[nH]c2ccc(F)cc2c1NC(=O)CCN1CCOCC1 79.4 µM [inhibitor, partial curve, poor fit], C=CCn1c(COC)nnc1SCC(=O)c1ccc(F)cc1 89.1 µM [inhibitor, partial curve, poor fit], Cc1ccccc1NC(=O)CN1C(=O)NC2(CCCCCCC2)C1=O 100 µM [inhibitor, partial curve, poor fit], COCC(=O)Nc1ccc(N2CCOCC2)c(S(=O)(=O)Nc2ccccc2OC)c1 89.1 µM [inhibitor, single point], Cc1ccc(/C=N/N2CCN(Cc3ccc(Cl)cc3)CC2)o1 79.4 µM [inhibitor, single point], COc1ccc(C(=O)Nc2ccc(-c3n[nH]c(=S)o3)cc2)cc1OC 100 µM [inhibitor, single point], CC1=C(C(=O)OC(C)C)C(c2ccc(Cl)cc2)n2c(s/c(=C\c3ccc(OCC(=O)O)cc3)c2=O)=N1 (stereo not given) 89.1 µM [inhibitor, partial curve, poor fit], O=C1C=C(c2cc3ccccc3s2)C[C@@H](c2ccc(Cl)cc2)C1 0.562 µM [inhibitor, full curve, poor fit], Cc1ccc(S/C(=N/S(=O)(=O)c2ccc(Cl)cc2)c2ccccc2)cc1 44.7 µM [inhibitor, partial curve], O=C(Cc1csc(Nc2nc(=S)[nH]c3ccccc23)n1)NCCCN1CCN(c2ccccc2F)CC1 89.1 µM [inhibitor, partial curve, poor fit], COCCCN1CC23C=CC(O2)C(C(=O)O)C3C1=O (stereo not given) 89.1 µM [inhibitor, single point], CC1(C)Cc2c(cnn2-c2ccc(F)cc2)C(NC(=O)CCN2CCCC2=O)C1 (stereo not given) 28.2 µM [inhibitor, partial curve, poor fit], CCc1nc(N2CCCC(C)C2)c2oc3ccccc3c2n1 (stereo not given) 44.7 µM [inhibitor, partial curve, poor fit], COC(=O)c1ccccc1NC(=O)CCS(=O)(=O)c1nc(-c2ccc3c(c2)OCO3)cc(C(F)(F)F)n1 25.1 µM [inhibitor, partial curve, poor fit], COC(=O)c1c(-c2cccs2)csc1NC(=O)c1ccc(C(C)C)cc1 31.6 µM [inhibitor, single point], S=c1[nH]c(-c2ccccc2)cn1/N=C/c1ccccc1Br 79.4 µM [inhibitor, single point], COc1ccc(C2=Nn3c([n+](C)c4ccccc43)SC2)cc1 100 µM [inhibitor, partial curve, poor fit], Cc1ccc2nc3c(cc2c1)CN(Cc1ccco1)C(=NCC1CCCO1)S3 (stereo not given) 50.1 µM [inhibitor, partial curve, poor fit], O=C(/C=C/c1cccc([N+](=O)[O-])c1)n1cnc2ccccc21 12.6 µM [inhibitor, partial curve], CC(/C=C1\SC(=S)N(C(C(=O)O)C(C)C)C1=O)=C\c1ccccc1 (stereo not given) 70.8 µM [inhibitor, single point], CC1=NN(Cc2ccccc2)C(=O)C1C(c1ccccc1)C(C#N)C#N (stereo not given) 56.2 µM [inhibitor, partial curve, poor fit], CCOC(=O)Nc1ccc2c(c1)N(C(=O)CCN1CCOCC1)c1ccccc1S2=O (stereo not given) 100 µM [inhibitor, single point], O=C(c1ccncc1)N1CCC[C@@]2(CCN(c3ccccc3)C2)C1 50.1 µM [inhibitor, partial curve], COc1ccc(C(=O)NCC(=O)OCC(=O)Nc2cc([N+](=O)[O-])ccc2F)cc1 89.1 µM [inhibitor, partial curve, poor fit], CCOC(=O)N1CCC(NC(=O)CS(=O)(=O)Cc2nc(-c3ccc(OC)cc3)oc2C)CC1 25.1 µM [inhibitor, single point], Fc1cc(F)cc(-c2c(-c3ccccc3)ncc3ccc(F)cc23)c1 79.4 µM [inhibitor, partial curve], Cc1cc(-c2ccc(Cl)cc2Cl)c(C#N)c(=O)[nH]1 22.4 µM [inhibitor, single point], Cc1ccnc(NC(c2ccccn2)c2c(C)[nH]c3ccccc23)c1 (stereo not given) 39.8 µM [inhibitor, single point], O=C(O)/C(=C/c1ccc(Cl)c([N+](=O)[O-])c1)c1ccc(S(=O)(=O)N2CCCCC2)s1 56.2 µM [inhibitor, single point], CCOC(=O)N1CCN(C(=O)c2cc3cc(C)ccc3[nH]2)CC1 70.8 µM [inhibitor, single point], CCOC(=O)c1c(NC(=S)NNS(=O)(=O)c2ccc(Br)cc2)sc2c1CCCCC2 89.1 µM [inhibitor, single point], CN(Cc1ccccc1)C(=O)CSc1c2c(nc3ccc(Cl)cc13)CCCC2 89.1 µM [inhibitor, single point], CCOC(=O)C1Nc2ccc(Br)cc2C2C=CCC12 (stereo not given) 56.2 µM [inhibitor, partial curve, poor fit], O=S(=O)(O)c1ccc(SCc2ccccc2)nc1 70.8 µM [inhibitor, single point]

Potency, active:
O=C(/C=C/c1cc(Br)ccc1O)c1ccco1 25.1 µM, S=c1[nH]nc(Cc2ccc(Br)cc2)n1/N=C/c1ccc(Cl)cc1 79.4 µM, CC(=O)Nc1ccc(SCCN2CCN(CCc3ccccc3)CCC2=O)cc1 17.8 µM, CN(C)C(=O)/N=N/C(=O)N(C)C 6.31 µM, COc1ccc(C2Nc3ccccc3C(=O)N2Cc2ccco2)cc1COc1c(C)cccc1C (stereo not given) 14.1 µM, CN(C)C(=O)c1ccc(-c2nccc(NCc3cccs3)n2)cc1 44.7 µM, CC1CCCN(CCC(=O)c2ccc(Br)cc2)C1 (stereo not given) 79.4 µM, CCCOc1ccc(C(=O)CCNC(Cc2c[nH]c3ccccc23)C(=O)O)cc1 (stereo not given) 44.7 µM, Cc1cc(O)c(C=O)c2c1C(=O)Oc1c(CO)c(O)c3c(c1O2)C(O)OC3=O (stereo not given) 17.8 µM

Max response, negative = inhibition, inactive:
COCCn1nnnc1C(c1ccc(Cl)cc1)N1CCSCC1 (stereo not given) 6.72%, O=C(ONC1=NCCCCC1)c1ccc([N+](=O)[O-])cc1 -22.1%, CCN1CCN(c2nc3c(c(=O)n(C)c(=O)n3C)n2Cc2cccc3ccccc23)CC1 -8.34%, CCCCN(CC)C(=O)CCCn1c(=O)c2cccn2c2ccccc21 5.07%, CSCC[C@H](N)C(=O)N[C@@H](C)C(=O)NCC(=O)N[C@@H](CCCN=C(N)N)C(=O)N[C@@H](CO)C(=O)NCC(=O)N[C@@H](CC(=O)O)C(=O)N[C@@H](CO)C(=O)N[C@@H](CC(=O)O)C(=O)N[C@@H](CCC(=O)O)C(=O)N[C@@H](CC(=O)O)C(=O)N[C@@H](CC(C)C)C(=O)N[C@@H](CC(C)C)C(=O)N[C@@H](CCCCN)C(=O)N[C@@H](C)C(=O)N[C@H](C(=O)O)C(C)C 0.534%, COc1ccc(-c2nnc(-c3ccccc3)o2)cc1OC -6.83%, N#Cc1c(NC(=O)c2ccc([N+](=O)[O-])o2)sc2c1CCC2 -4.1%, Cc1ccc(S(=O)(=O)N(CC(=O)NCCC2=CCCCC2)Cc2ccccc2)cc1 1.39%, COc1ccc(Br)cc1CN1CCN(Cc2c[nH]c3ccccc23)CC1 -3.36%, CCOC(=O)CC[C@H](NC(=O)Cn1cnc2c(NCc3ccccc3)ncnc21)C(=O)OCC -6.63%, Cc1ccc(NC(=O)CCS(=O)(=O)c2ccc3c(c2)oc(=O)n3C)c(Br)c1 5.47%, COc1ccccc1S(=O)(=O)N1CCN(c2nc(-c3cccs3)nc3ccccc23)CC1 -22.2%, CCN(CC)C(=O)[C@H]1CC(CC(=O)NCCCOC)C(=O)N2CCc3c([nH]c4ccccc34)[C@]12C (stereo not given in full) -4.95%, O=C(N/N=C\c1ccccc1O)c1ccccc1O -1.35%, Cc1cccc(NC(=S)NNC(=O)c2nn(C)cc2Cl)c1 -8.19%, CCOC(=O)C1=C(CSc2nc3c(cc2C#N)CN(C)CC3)OC(N)=C(C#N)C1c1ccccc1 (stereo not given) -13.7%, O=C(NC1CCCCC1)NC1CC2CCC(C1)N2C(=S)NCc1ccco1 (stereo not given) 13.2%, Cc1ccc(C(=O)CSc2nnc(-c3ccccc3N)n2C)cc1C -3.2%, CCC(C(=O)NCCCN1CCOCC1)n1c2ccccc2c2nc(=O)cc(C)n21 (stereo not given) -10.4%
